Measured values from paper PMC5676692.
These are yes or no findings as the source states them, for the method shown. Binding seen in cells or lysates may run through a third protein. Some results given as binding are weak or reduced against the parent protein; the word gives no strength.

Biological target: AAV9-138 capsid protein VP1 with the tetracysteine motif, biotinylated (adeno-associated virus serotype 9 (AAV9)) (UniProt Q6JC40)
Assay: pull-down; biotinylated AAV9-138 particles (assembled in HEK293T cells) pulled down with streptavidin-agarose under stringent washes; eluate on Instant Blue stained gel and immunoblot with anti-AAV VP1, VP2, VP3 antibody

AAV9 capsid protein VP3 (from UniProt Q6JC40 203-736)
binding: binds
